The target of the assay is Aβo*3F (Aβ oligomer specifically bound by the antibody 3F), prepared in vitro (UniProt P05067). Description: ELISA. (An ELISA detects its analyte on a solid surface through an enzyme-linked reagent.)

Amino acid sequences for entries named in this document (tags omitted). Residues count along the entry.
UniProt P05067, residues 672-713: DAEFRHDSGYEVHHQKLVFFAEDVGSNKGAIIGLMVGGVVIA

Results are given in words; binding and its absence hold for the method and conditions named. Some entries that bind do so weakly or less than the wild type.

B1: single-chain antibody 7B (scFv)
scFv: MAEVQLLESGGGLVQPGGSLRLSCAASGFTFSSYAMSWVRQAPGKGLEWVSGISNLGLTTGYADSVKGRFTISRDNSKNTLYLQMNSLRAEDTAVYYCAKTTSRFDYWGQGTLVTVSSGGGGSGGGGSGGGGSTDIQMTQSPSSLSASVGDRVTITCRASQSISSYLNWYQQKPGKAPKLLIYKASYLQSGVPSRFSGSGSGTDFTLTISSLQPEDFATYYCQQMRRKPVTFGQGTKVEIKR
Take B1: the binding entry is on record as “binds”.

The values are drawn from patent EP4570818A1.
